Measured data: PubChem BioAssay AID504744 (Drosophila RNAi Screening Center, 2011)

- Assay: 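Find genes whose loss alters insulin-driven dAkt phosphorylation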 (primary screen)
- System: Drosophila Kc167 cells
- Knock-down reagent: long dsRNA against Drosophila genes, 250 ng dsRNA per well of a 384-well plate
- Time to read-out: 3 days of knock-down, then overnight serum-free starvation before stimulation
- Conditions: bovine insulin at 387 nM for 10 minutes after 12 h without serum
- Read-out: 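Per-well phospho-dAkt level from an in-cell fluorescent antibody stain, divided by a DNA-dye signal; log2 residuals turned into z-scores that take cell number into account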
- Rule for the call: 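Under insulin, a gene counts as a hit if the average z-score of two replicates lies above 2.5 or below -2.5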
The deposit covers about 23,000 reagents; this is a random part of those with a known target gene and a result. Of all reagents, 98 (0.43%) got an active call. 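Only hit calls are given; the phospho-dAkt signals, z-scores and hit direction were not deposited.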

NimB4 (Nimrod B4) [DRSC01884] gave inactive.
Depletion of mura (murashka) [DRSC16483] came out at: inactive.
Against mura (murashka) [DRSC16484], the values are inactive.
After knock-down of ast (asteroid) [DRSC00803], the screen gave inactive.
Pcp (Pupal cuticle protein) [DRSC03395] showed inactive.
With knock-down of CG14566 [DRSC11727] the results were inactive.
After knock-down of Fer3HCH (Ferritin 3 heavy chain homologue) [DRSC19892], the screen gave inactive.
After knock-down of Spn53F (Serpin 53F) [DRSC06022], the record shows inactive.
For Surf6 (Surfeit 6) [DRSC15588], the values are inactive.
Knock-down of CG5194 [DRSC10492] came out at: inactive.
VGlut (Vesicular glutamate transporter) [DRSC00733] scored inactive.
Against VGlut (Vesicular glutamate transporter) [DRSC21821], the values are inactive.
CG12963 [DRSC06265] gave inactive.

2 of these entries, reformatted.
NimB4 (Nimrod B4) [DRSC01884]
- Outcome: inactive

mura (murashka) [DRSC16483]
- Outcome: inactive

Further results follow:
After knock-down of CG15333 [DRSC18016], the record shows inactive.
Against CG15333 [DRSC18153], the entry reads inactive.
CG15425 [DRSC00440] scored inactive.
Against loopin-1 [DRSC06888] the deposit lists inactive.
With knock-down of Mip (Myoinhibiting peptide precursor) [DRSC10639], the screen gave inactive.
Silencing of Chd64 [DRSC08649] resulted in: inactive.
With knock-down of CG11865 [DRSC01872], the record shows inactive.
Depletion of CCT6 (Chaperonin containing TCP1 subunit 6) [DRSC20095] gave: inactive.
CG3847 [DRSC17444] gave inactive.
Depletion of CG3847 [DRSC18327] came out at: inactive.
